PubChem BioAssay AID1224830 | NIAID | 2016

- Assay: 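Genes whose knock-down alters the TNF-alpha reporter response to LPS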 (primary screen)
- Cells: human THP-1 monocytic leukaemia cells, TNF dual-luciferase reporter clone, PMA-differentiated to macrophage-like cells
- Reagent: siRNA pool against human genes, 50 nM
- Timing: LPS for 4 h, given about 3 days after siRNA transfection
- Challenge: bacterial LPS (TLR4 ligand), 10 ng/ml
- Detection: 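Ratio of firefly to renilla light, scaled to the plate median and expressed as a robust z-score per replicate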
- Scale: TNF reporter robust z-score: higher = stronger TNF reporter response to LPS
- Rule for the call: 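Each well counts as active if its z-score is over 2.8 or under -1.5; controls are left without a call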
The deposit covers about 18,000 reagents; shown is an unselected part. About 2,900 of all reagents (16%) were called active. 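Calls are made per well; low scores hint the gene aids the LPS response, high scores that it dampens it.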 Repeated entries: four replicate wells of each siRNA pool.

AADAT
- TNF reporter robust z-score: -0.43
- outcome: inactive

AADAT
- TNF reporter robust z-score: -0.35
- outcome: inactive

AADAT
- TNF reporter robust z-score: -1.08
- outcome: inactive

AADAT
- TNF reporter robust z-score: 0
- outcome: inactive

ZSCAN31
- TNF reporter robust z-score: 0.43
- outcome: inactive

ZSCAN31
- TNF reporter robust z-score: 0.54
- outcome: inactive

ZSCAN31
- TNF reporter robust z-score: -0.03
- outcome: inactive

ZSCAN31
- TNF reporter robust z-score: 0.53
- outcome: inactive

CILK1
- TNF reporter robust z-score: -0.48
- outcome: inactive

CILK1
- TNF reporter robust z-score: 1.45
- outcome: inactive

CILK1
- TNF reporter robust z-score: 0.1
- outcome: inactive

CILK1
- TNF reporter robust z-score: 0.83
- outcome: inactive

Records above whose gene name begins with Z or z:
ZSCAN31
- TNF reporter robust z-score: 0.43
- outcome: inactive

ZSCAN31
- TNF reporter robust z-score: 0.54
- outcome: inactive

ZSCAN31
- TNF reporter robust z-score: -0.03
- outcome: inactive

ZSCAN31
- TNF reporter robust z-score: 0.53
- outcome: inactive

The list goes on:
DHRS4L2
- TNF reporter robust z-score: -1.19
- outcome: inactive

DHRS4L2
- TNF reporter robust z-score: 0.24
- outcome: inactive

DHRS4L2
- TNF reporter robust z-score: -0.81
- outcome: inactive

DHRS4L2
- TNF reporter robust z-score: -0.29
- outcome: inactive

CSAG1
- TNF reporter robust z-score: 0.75
- outcome: inactive

CSAG1
- TNF reporter robust z-score: 0.38
- outcome: inactive

CSAG1
- TNF reporter robust z-score: 0.57
- outcome: inactive

CSAG1
- TNF reporter robust z-score: 0.22
- outcome: inactive

CRYGD
- TNF reporter robust z-score: 0.61
- outcome: inactive

CRYGD
- TNF reporter robust z-score: 1.33
- outcome: inactive

CRYGD
- TNF reporter robust z-score: 1.62
- outcome: inactive

CRYGD
- TNF reporter robust z-score: 1.26
- outcome: inactive

RDH5
- TNF reporter robust z-score: 0.22
- outcome: inactive

RDH5
- TNF reporter robust z-score: 0.76
- outcome: inactive

RDH5
- TNF reporter robust z-score: -0.09
- outcome: inactive

RDH5
- TNF reporter robust z-score: 0
- outcome: inactive

CNIH3
- TNF reporter robust z-score: -0.75
- outcome: inactive

CNIH3
- TNF reporter robust z-score: -0.45
- outcome: inactive

CNIH3
- TNF reporter robust z-score: -0.06
- outcome: inactive

CNIH3
- TNF reporter robust z-score: -0.09
- outcome: inactive
